From publication PMC4234371
Results are given in words; binding and its absence hold for the method and conditions named. Binding seen in cells or lysates may run through a third protein. Binding can be weak; no strength is given.

Amino acid sequences for entries named in this document (tags omitted). A change or cut given only in a name is not applied to a line headed by its entry.
UniProt P50591: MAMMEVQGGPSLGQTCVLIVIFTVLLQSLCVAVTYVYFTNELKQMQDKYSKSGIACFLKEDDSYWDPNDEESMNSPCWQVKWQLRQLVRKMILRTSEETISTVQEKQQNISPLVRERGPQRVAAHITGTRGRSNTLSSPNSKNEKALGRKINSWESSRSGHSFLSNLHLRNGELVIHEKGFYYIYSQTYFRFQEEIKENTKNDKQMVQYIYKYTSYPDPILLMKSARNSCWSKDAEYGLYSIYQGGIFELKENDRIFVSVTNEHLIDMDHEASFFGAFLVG
UniProt Q14790: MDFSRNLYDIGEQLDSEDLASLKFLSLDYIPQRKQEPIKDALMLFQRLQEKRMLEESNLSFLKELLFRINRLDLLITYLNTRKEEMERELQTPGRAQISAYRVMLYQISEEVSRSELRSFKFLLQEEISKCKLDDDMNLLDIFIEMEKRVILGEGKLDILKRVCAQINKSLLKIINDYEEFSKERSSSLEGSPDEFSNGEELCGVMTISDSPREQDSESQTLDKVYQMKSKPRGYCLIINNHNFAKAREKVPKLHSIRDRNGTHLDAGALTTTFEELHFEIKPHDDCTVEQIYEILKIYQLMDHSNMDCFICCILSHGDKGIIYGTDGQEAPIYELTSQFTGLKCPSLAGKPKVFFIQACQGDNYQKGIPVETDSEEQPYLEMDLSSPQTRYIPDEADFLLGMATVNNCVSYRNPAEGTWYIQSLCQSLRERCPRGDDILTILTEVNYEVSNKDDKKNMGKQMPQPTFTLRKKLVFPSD

Tests used:
[1] = molecular target: Flag-tagged soluble TRAIL (tumor necrosis factor-related apoptosis-inducing ligand) (UniProt P50591); experiment: co-IP; TRAIL DISC analysis in SKOV3 cells (empty vector and MUC16CTD): cells stimulated with 2 ug/ml Flag-tagged TRAIL pre-incubated with 3 ug/ml anti-Flag M2 for 30 or 60 min, lysed in 30 mM Tris-HCl, 150 mM NaCl, 1% Triton, DISC precipitated with protein G agarose overnight at 4°C, immunoblot; only the target purified
[2] = molecular target: Flag-tagged soluble TRAIL (tumor necrosis factor-related apoptosis-inducing ligand) (UniProt P50591); experiment: co-IP; TRAIL DISC analysis in OVCAR3 sublines (Ctrl scFv and MUC16 scFv knockdown): cells stimulated with 1 ug/ml Flag-tagged TRAIL pre-incubated with 3 ug/ml anti-Flag M2 for 30 or 60 min, lysed in 30 mM Tris-HCl, 150 mM NaCl, 1% Triton, DISC precipitated with protein G agarose overnight at 4°C, immunoblot; only the target purified

caspase-8 (pro-caspase-8 and its p43/41 fragments) (from UniProt Q14790 1-479) (enzyme)
binding [1]: binds | binding [2]: binds
